± gives the standard deviation of the averaged measurements. Most entries show no effect beyond the scatter of the controls.
Columns and labels:
Test in all cases: level (log10 ratio to DMSO vehicle control); higher = higher biomarker level / cell amount than vehicle control
[1] = compound: O=S(=O)(F)C(F)(F)C(F)(F)C(F)(F)C(F)(F)C(F)(F)C(F)(F)C(F)(F)C(F)(F)F [Perfluorooctanesulfonyl fluoride]; conditions: 2200 nM; in DMSO
Experimental: (§1)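 BioMAP Diversity Plus panel of 12 human primary cell co-culture systems (3C, 4H, LPS, SAg, BT, BF4T, BE3C, CASM3C, HDF3CGF, KF3CT, MyoF, Mphg). Compounds were added 1 h before stimulation and left for 24 h (MyoF 48 h; BT 72 h for soluble read-outs or 6 d for IgG). Biomarkers were read by ELISA, cytotoxicity by SRB, PBMC viability and proliferation by Alamar Blue. Each well value was divided by the mean of 8 DMSO control wells on the same plate and log10 transformed; duplicate blinded samples were tested at 4 concentrations.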

[2] = compound: O=C(O)C(F)(F)C(F)(F)C(F)F [4H-Perfluorobutanoic acid]; conditions: in DMSO
Experimental: as §1

[3] = compound: NC(=O)C(F)(F)C(F)(F)C(F)(F)C(F)F; conditions: in DMSO
Experimental: as §1

[4] = compound: O=S(=O)(O)C(F)(F)C(F)(F)C(F)(F)C(F)(F)C(F)(F)C(F)(F)C(F)(F)C(F)(F)F [Perfluorooctanesulfonic acid]; conditions: 2200 nM; in DMSO
Experimental: as §1

[5] = compound: OCCCCC(F)(F)C(F)(F)C(F)(F)C(F)(F)F [4:4 Fluorotelomer alcohol]; conditions: 2200 nM; in DMSO
Experimental: as §1

[6] = compound: CO[Si](C)(CCC(F)(F)C(F)(F)C(F)(F)C(F)(F)C(F)(F)C(F)(F)F)OC [Dimethoxymethyl((perfluorohexyl)ethyl)silane]; conditions: in DMSO
Experimental: as §1

[7] = compound: C=CC(=O)OCC(F)(F)C(F)(F)C(F)(F)C(F)(F)C(F)(F)C(F)(F)C(F)(F)F [1H,1H-Perfluorooctyl acrylate]; conditions: 2200 nM; in DMSO
Experimental: as §1

[8] = compound: O=P(O)(O)CCC(F)(F)C(F)(F)C(F)(F)C(F)(F)C(F)(F)C(F)(F)F [2-(Perfluorohexyl)ethylphosphonic acid]; conditions: 2200 nM; in DMSO
Experimental: as §1

[9] = compound: C=C(C)C(=O)OCC(F)(F)C(F)(F)C(F)(F)C(F)(F)C(F)(F)C(F)(F)C(F)(F)F; conditions: in DMSO
Experimental: as §1

[10] = compound: FC(F)(F)C(F)(F)C(F)(F)CC1CO1 [1H,1H-Heptafluorobutyl epoxide]; conditions: 2200 nM; in DMSO
Experimental: as §1

[11] = compound: C=CC(F)(F)C(F)(F)C(F)(F)C(F)(F)C(F)(F)C(F)(F)C(F)(F)C(F)(F)C=C [1,8-Divinylperfluorooctane]; conditions: in DMSO
Experimental: as §1

[12] = compound: O=S(=O)(OCC(F)(F)F)C(F)(F)C(F)(F)C(F)(F)C(F)(F)F [2,2,2-Trifluoroethyl perfluorobutanesulfonate]; conditions: 2200 nM; in DMSO
Experimental: as §1

[13] = compound: NS(=O)(=O)C(F)(F)C(F)(F)C(F)(F)C(F)(F)C(F)(F)C(F)(F)C(F)(F)C(F)(F)F [Perfluorooctanesulfonamide]; conditions: in DMSO
Experimental: as §1

[14] = compound: O=S(=O)(O)C(F)(F)C(F)(F)C(F)(F)C(F)(F)C(F)(F)C(F)(F)C(F)(F)C(F)(F)F [Potassium perfluorooctanesulfonate]; conditions: 2200 nM; in DMSO
Experimental: as §1

Pentafluoropropionamide = compound: NC(=O)C(F)(F)C(F)(F)F [Pentafluoropropionamide]; conditions: 2200 nM; in DMSO
Experimental: as §1

[15] = compound: OCC(F)(F)C(F)(F)C(F)(F)C(F)(F)C(F)(F)C(F)F [1H,1H,7H-Dodecafluoro-1-heptanol]; conditions: 2200 nM; in DMSO
Experimental: as §1

[16] = compound: COC(=O)C(F)(F)C(F)(F)OC(F)(C(F)(F)F)C(F)(F)OC(F)=C(F)F [Methyl perfluoro(3-(1-ethenyloxypropan-2-yloxy)propanoate)]; conditions: in DMSO
Experimental: as §1

Heptafluorobutyl iodide = compound: FC(F)(F)C(F)(F)C(F)(F)CI [Heptafluorobutyl iodide]; conditions: 2200 nM; in DMSO
Experimental: as §1

Test System	level (log10) [1]	level (log10) ([2]; 2200 nM)	level (log10) ([2]; 6700 nM)	level (log10) ([2]; 20000 nM)	level (log10) ([2]; 60000 nM)	level (log10) ([3]; 2200 nM)	level (log10) ([3]; 6700 nM)	level (log10) ([3]; 20000 nM)	level (log10) ([3]; 60000 nM)	level (log10) [4]	level (log10) [5]	level (log10) ([6]; 740 nM)	level (log10) ([6]; 2200 nM)	level (log10) [7]	level (log10) [8]	level (log10) ([9]; 740 nM)	level (log10) ([9]; 2200 nM)	level (log10) [10]	level (log10) ([11]; 740 nM)	level (log10) ([11]; 2200 nM)	level (log10) [12]	level (log10) ([13]; 2200 nM)	level (log10) ([13]; 6700 nM)	level (log10) ([13]; 20000 nM)	level (log10) [14]	level (log10) (Pentafluoropropionamide)	level (log10) [15]	level (log10) ([16]; 740 nM)	level (log10) ([16]; 2200 nM)	level (log10) (Heptafluorobutyl iodide)
BE3C:tPA	-0.009 ± 0.057	0 ± 0.0028	-0.016 ± 0.0014	-0.0305 ± 0.012	-0.006 ± 0.016	-0.0075 ± 0.022	-0.008 ± 0.0028	-0.0275 ± 0.016	-0.0235 ± 0.0021	0.106 ± 0.056	0.005 ± 0.018	0.0015 ± 0.03	-0.026 ± 0.021	-0.0135 ± 0.0035	-0.0385 ± 0.019	0.018 ± 0.0028	-0.0205 ± 0.015	0.012 ± 0.038	0.0005 ± 0.005	-0.0045 ± 0.021	-0.001 ± 0.0028	0.0715 ± 0.044	0.0025 ± 0.035	-0.058 ± 0.055	0.122 ± 0.016	-0.0025 ± 0.00071	0.0025 ± 0.021	-0.056 ± 0.031	-0.118 ± 0.023	0.0065 ± 0.0092
BE3C:uPA	0.002 ± 0.0057	-0.0235 ± 0.049	-0.016 ± 0.05	-0.009 ± 0.016	0.0055 ± 0.06	-0.0015 ± 0.005	-0.01 ± 0.0057	-0.013 ± 0.0085	-0.0045 ± 0.013	-0.0005 ± 0.0092	0.0015 ± 0.018	0.005 ± 0.027	0.007 ± 0.011	-0.008 ± 0.0028	0.0055 ± 0.023	-0.002 ± 0.011	-0.0075 ± 0.019	-0.0115 ± 0.0078	-0.0105 ± 0.00071	-0.0135 ± 0.011	0.005 ± 0.017	-0.004 ± 0.0085	-0.0065 ± 0.013	0.0145 ± 0.0064	0.006 ± 0.0071	-0.0095 ± 0.0078	-0.008 ± 0.011	-0.009 ± 0.016	-0.0195 ± 0.00071	-0.0055 ± 0.018
BF4T:CCL2/MCP-1	-0.0165 ± 0.032	-0.023 ± 0.025	-0.012 ± 0.0085	0.004 ± 0.011	0.0475 ± 0.069	0.044 ± 0.081	0.008 ± 0.0042	-0.0135 ± 0.0092	0.0165 ± 0.047	0.029 ± 0.011	0.025 ± 0.0028	0.013 ± 0.05	-0.0085 ± 0.0064	0.015 ± 0.051	-0.002 ± 0.038	0.013 ± 0.041	0.0005 ± 0.015	0.0135 ± 0.011	0.0185 ± 0.0064	-0.012 ± 0.0028	0.017 ± 0.03	-0.005 ± 0.021	-0.084 ± 0.0071	-0.0565 ± 0.018	0.0385 ± 0.088	0.003 ± 0.014	0.029 ± 0.071	0.027 ± 0.023	0.011 ± 0.0085	0.0175 ± 0.059
BF4T:CCL26/Eotaxin-3	0.0285 ± 0.0021	-0.0325 ± 0.0064	-0.035 ± 0.011	0.0085 ± 0.0035	-0.0115 ± 0.063	0.027 ± 0.041	-0.001 ± 0.0085	-0.012 ± 0.033	0.0005 ± 0.018	-0.0105 ± 0.08	0.05 ± 0.079	0.014 ± 0.018	-0.0135 ± 0.00071	-0.004 ± 0.014	0.0275 ± 0.094	0.0125 ± 0.073	-0.013 ± 0.041	0.002 ± 0.044	-0.0115 ± 0.052	-0.0115 ± 0.032	-0.0115 ± 0.039	-0.046 ± 0.048	-0.117 ± 0.017	-0.169 ± 0.014	-0.015 ± 0.11	-0.0045 ± 0.06	0.041 ± 0.09	0.0375 ± 0.042	-0.012 ± 0.0028	0.0065 ± 0.047

From the supplement of paper PMC10331698
